PubChem BioAssay AID652259 – Drosophila RNAi Screening Center – 2013

Screen: 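Identify new Wingless signalling regulators in fly cells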 (primary screen)
Cell system: Drosophila clone 8 imaginal disc epithelial cells
Reagents: long dsRNA against Drosophila genes
Conditions: pathway stimulated by co-transfected Wingless expression plasmid
Measured: 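Dual luciferase reads per well after Wingless plasmid stimulation: reporter firefly light and Renilla control light; activity is firefly divided by Renilla, a ratio not deposited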
Scale: firefly reporter light: higher = more Wg reporter light, before normalisation; Renilla control light: higher = more transfected or surviving cells
Call rule: 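Strong candidates differ from their plate mean by at least two out of four per-plate statistical tests; weak candidates meet just one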
Meaning of the calls: active = candidate regulator (raises or lowers reporter); inactive = not a candidate
In all, the deposit lists about 22,000 reagents; shown is a random part of those with a known target gene and a result. Over the whole deposit, 233 (1.1%) are marked active. 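Light values are raw, unnormalised plate reads; the ratio scores behind the reporter calls were not deposited.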 A plus sign joins genes that one reagent is predicted to hit. Reagent sequences are not shown. Not stated in the record: the amount of reagent, the time to read-out, the dose of the treatment.

CG30265 [DRSC21592] gave firefly reporter light, replicate 1 = 7.12e5; firefly reporter light, replicate 2 = 6.59e5; Renilla control light, replicate 1 = 3.54e5; Renilla control light, replicate 2 = 2.75e5; inactive.
AstA [DRSC14634] showed firefly reporter light, replicate 1 = 27483; Renilla control light, replicate 1 = 20197; inactive.
After knock-down of CG5906 [DRSC10557], the record shows firefly reporter light, replicate 1 = 5339; Renilla control light, replicate 1 = 2172; inactive.
Srg1 [DRSC14640] gave firefly reporter light, replicate 1 = 29590; Renilla control light, replicate 1 = 19979; inactive.
Knock-down of Nt5c [DRSC06711] gave: firefly reporter light, replicate 1 = 10029; Renilla control light, replicate 1 = 2828; inactive.
For CCHa1 [DRSC14821] the deposit lists firefly reporter light, replicate 1 = 13465; Renilla control light, replicate 1 = 2368; inactive.
For St4 [DRSC07008], the values are firefly reporter light, replicate 1 = 6448; Renilla control light, replicate 1 = 1737; inactive.
Yp1 [DRSC18731] scored firefly reporter light, replicate 1 = 33724; Renilla control light, replicate 1 = 7928; inactive.
With knock-down of alphaCOP [DRSC08706] the results were firefly reporter light, replicate 1 = 13392; Renilla control light, replicate 1 = 3318; inactive.
Against CG12698 [DRSC19485], the entry reads firefly reporter light, replicate 1 = 21136; Renilla control light, replicate 1 = 8540; inactive.
Depletion of Tsc1 [DRSC16890] resulted in: firefly reporter light, replicate 1 = 5172; firefly reporter light, replicate 2 = 4667; Renilla control light, replicate 1 = 1522; Renilla control light, replicate 2 = 1495; inactive.
CG9497 [DRSC03234] gave firefly reporter light, replicate 1 = 13003; Renilla control light, replicate 1 = 5843; inactive.
CG33096 [DRSC14440] gave firefly reporter light, replicate 1 = 3324; firefly reporter light, replicate 2 = 6154; Renilla control light, replicate 1 = 1488; Renilla control light, replicate 2 = 2109; inactive.
Depletion of CG13010 [DRSC19529] gave: firefly reporter light, replicate 1 = 24232; Renilla control light, replicate 1 = 11296; inactive.
Depletion of put [DRSC17039] resulted in: firefly reporter light, replicate 1 = 5528; Renilla control light, replicate 1 = 2054; inactive.
CG31296 [DRSC13092] scored firefly reporter light, replicate 1 = 2090; Renilla control light, replicate 1 = 937; inactive.
Depletion of CG1504 [DRSC20513] came out at: firefly reporter light, replicate 1 = 14528; Renilla control light, replicate 1 = 811; inactive.
Against Cec2 [DRSC21885], the values are firefly reporter light, replicate 1 = 3.78e5; firefly reporter light, replicate 2 = 3.86e5; Renilla control light, replicate 1 = 1.76e5; Renilla control light, replicate 2 = 2.07e5; inactive.
Against CG11068 [DRSC19369] the deposit lists firefly reporter light, replicate 1 = 16528; Renilla control light, replicate 1 = 7025; inactive.
Against mRpL46 [DRSC08391], the entry reads firefly reporter light, replicate 1 = 6720; Renilla control light, replicate 1 = 2625; inactive.
Against Exd2 [DRSC16105], the entry reads firefly reporter light, replicate 1 = 11350; Renilla control light, replicate 1 = 2163; inactive.
Silencing of CG33768 [DRSC11715] came out at: firefly reporter light, replicate 1 = 19440; Renilla control light, replicate 1 = 5696; inactive.
Vps52 [DRSC03050] showed firefly reporter light, replicate 1 = 1776; firefly reporter light, replicate 2 = 5898; Renilla control light, replicate 1 = 643; Renilla control light, replicate 2 = 1076; inactive.
For UQCR-6.4 [DRSC06454] the deposit lists firefly reporter light, replicate 1 = 6433; Renilla control light, replicate 1 = 2432; inactive.
Silencing of aqz + CG9837 [DRSC12709] gave: firefly reporter light, replicate 1 = 6464; Renilla control light, replicate 1 = 2061; inactive.

Individual results from above:
Entry of Vps52 [DRSC03050] in “outcome”: inactive
Result of Tsc1 [DRSC16890] in “firefly reporter light, replicate 1”: 5172
Under “firefly reporter light, replicate 2”, CG30265 [DRSC21592] has 6.59e5
